Paper PMC10057332 (International Journal of Molecular Sciences, 2023)

Experiments:
[1] = general procedure: peptide synthesis; Rink Amide resin (Novabiochem); 2-chlorotrityl resin preloaded with ethylendiamine linker; Oxyma pure / DIC
[2] = general procedure: peptide synthesis; Rink Amide; Oxyma pure / DIC; conditions: whole synthesis

Row | Substance | final HPLC purity ([1]; conjugation step, 216 nm) [%] | isolated yield [2] [%] | final HPLC purity ([1]; whole synthesis, 216nm) [%] | also measured
1 | Oct-Aib^1-Gly-Leu-Aib^4-Gly-Gly-Leu-Api^8-Gly-Ile-Leu^11-NH-(CH2)2-NH-Lipoyl | 96 | – | – | –
2 | Oct-Aib^1-Gly-Leu-Aib^4-Gly-Gly-Leu-Api^8-Gly-Ile-Leu^11-NH2 | – | 60.28 | 95 | –
3 | Oct-Aib^1-Gly-Leu-Leu^4-Gly-Gly-Leu-Aib^8-Gly-Ile-Leu^11-NH-(CH2)2-NH-Lipoyl | 96 | – | – | –
4 | Oct-Aib^1-Gly-Leu-Aib^4-Gly-Gly-Leu-Api^8-Gly-Ile-Leu^11-NH-(CH2)2-NH-FITC | – | – | – | final purity (method not given) ([1]; conjugation step, analytical RP-HPLC, 216 nm): 95%
5 | Oct-Aib^1-Gly-Leu-Leu^4-Gly-Gly-Leu-Aib^8-Gly-Ile-Leu^11-NH-(CH2)2-NH-FITC | 98 | – | – | –
6 | PEPTIDE1{[Oct].[Aib].G.L.L.G.G.L.[Aib].G.I.L.[am]}$$$$V2.0 | – | 72.5 | 98 | –

Strings that start with PEPTIDE1 are HELM notation: dots part the residues, brackets hold end groups and non-standard residues.
